{"source": "paper PMC3475717", "about": "“A Spiroligomer α-Helix Mimic That Binds HDM2, Penetrates Human Cells and Stabilizes HDM2 in Cell Culture” (PLoS ONE, 2012)", "test_system": "HDM2 and wt-p53 in HepG2 cells", "test": "time dependent Western analysis of HDM2 and wt-p53", "type": "cell-based, human", "details": "HepG2, 15 µM, at 4–8 hours, average", "experimental": "Time dependent Western analysis of the effect of spiroligomer 1 on the levels of HDM2 and wt-p53 in HepG2 cells were also carried out. In HepG2 cells the HDM2 levels increased on average 2-fold at 4–8 hours after introduction of compound 1 and then decreased after that (Figure 11B&C). The wt-p53 increased on average about 2–3 fold at 6–12 hours and then decreased after that (Figure 11B&D). This is in contrast to the well-known effect of Nutlin-3 observed in many cell lines in which the level of wt-p53 increases in a dose-dependent manner with a concomitant increase in the levels of HDM2 (Figure 11B), [34]. In HepG2 cells, the HDM2 stabilization of compound 1 seen in Huh7 cells is possibly muted by the negative feedback loop of p53 and HDM2. The weak, transient stabilization of p53 in HepG2 cells by compound 1 may be due to its dissociation constant with HDM2 (400 nM) being on par with the affinity of p53 for HDM2.\nTable S.7. Parameters used for the non-linear fit for the plot of the competition binding experiment.\nCell Culture and Treatment. […]\nFluorescence and Confocal Microscopy. Fluorescence and confocal microscopy were applied to live and fixed cells. […] Fluorescent specimens were analyzed using an ECLIPSE Ti microscope (Nikon), lenses with hardened […]\nWestern Blotting. […] Images were quantified using ImageJ software (NIH). […]", "note": "“Also recorded” adds a separate entry of the source. Not every entry of the source has a single result; some have several. Only these are listed. The source may hold further records. Results that share an entry do not match, cause unknown; some may be repeats, others may stem from another dose, organism or construct than stated.", "data": [{"compound": "CC(C)CN1C(=O)[C@@H]2C[C@@]3(CN2C(=O)[C@@]12C[C@H]1C(=O)N(Cc4ccc(Cl)c(Cl)c4)[C@]4(C[C@@H]5C(=O)N[C@@H](CCc6ccccc6)C(=O)N5C4)C(=O)N1C2)NC(=O)[C@@H](CCCCNC(=S)Nc1ccc2c(c1)C(=O)OC21c2ccc(O)cc2Oc2cc(O)ccc21)NC3=O", "note": "[Compound 1]", "values": [{"measurement": "HDM2 levels relative to control", "value": "transient increase in HDM2 levels at 4 hours followed by a decrease; also recorded: 2 fold"}]}]}
